In the supplement of paper PMC10849652:
This is one part of the list.

By UniProt entry, the sequences of proteins in these tests, tags left out. Where a name states a change or a piece, a line headed by the entry shows the natural chain unless it says otherwise.
UniProt Q5BJF6: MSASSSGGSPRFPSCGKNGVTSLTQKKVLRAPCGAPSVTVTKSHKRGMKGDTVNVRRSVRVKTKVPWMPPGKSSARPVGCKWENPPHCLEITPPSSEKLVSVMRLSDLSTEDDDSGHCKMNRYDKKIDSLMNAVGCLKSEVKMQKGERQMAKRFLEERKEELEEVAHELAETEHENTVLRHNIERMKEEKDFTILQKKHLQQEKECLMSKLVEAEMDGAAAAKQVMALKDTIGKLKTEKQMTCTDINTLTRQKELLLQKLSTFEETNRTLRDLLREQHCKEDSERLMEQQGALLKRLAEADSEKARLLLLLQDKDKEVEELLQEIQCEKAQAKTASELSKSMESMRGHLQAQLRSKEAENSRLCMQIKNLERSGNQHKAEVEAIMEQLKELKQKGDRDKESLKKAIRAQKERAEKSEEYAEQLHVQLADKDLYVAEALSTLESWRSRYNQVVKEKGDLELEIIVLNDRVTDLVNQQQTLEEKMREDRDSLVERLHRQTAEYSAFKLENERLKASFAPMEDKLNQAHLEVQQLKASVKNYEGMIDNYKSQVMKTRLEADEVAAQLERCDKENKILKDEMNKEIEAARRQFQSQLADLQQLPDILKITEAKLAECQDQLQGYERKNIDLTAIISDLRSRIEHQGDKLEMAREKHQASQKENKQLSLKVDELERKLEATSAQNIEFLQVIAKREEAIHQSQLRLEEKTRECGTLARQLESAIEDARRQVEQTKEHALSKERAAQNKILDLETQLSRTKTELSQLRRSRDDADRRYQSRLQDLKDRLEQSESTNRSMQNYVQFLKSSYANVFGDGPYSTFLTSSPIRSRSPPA
UniProt Q96D31, whole entry, looked up: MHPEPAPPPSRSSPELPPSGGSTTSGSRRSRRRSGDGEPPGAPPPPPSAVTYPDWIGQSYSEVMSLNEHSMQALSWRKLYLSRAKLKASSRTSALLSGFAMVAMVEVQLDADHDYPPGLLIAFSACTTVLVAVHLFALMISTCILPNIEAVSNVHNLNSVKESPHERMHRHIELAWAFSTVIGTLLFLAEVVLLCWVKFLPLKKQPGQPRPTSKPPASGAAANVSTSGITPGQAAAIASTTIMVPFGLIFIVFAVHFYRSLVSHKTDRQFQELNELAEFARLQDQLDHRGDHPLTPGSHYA
UniProt Q9UBU9: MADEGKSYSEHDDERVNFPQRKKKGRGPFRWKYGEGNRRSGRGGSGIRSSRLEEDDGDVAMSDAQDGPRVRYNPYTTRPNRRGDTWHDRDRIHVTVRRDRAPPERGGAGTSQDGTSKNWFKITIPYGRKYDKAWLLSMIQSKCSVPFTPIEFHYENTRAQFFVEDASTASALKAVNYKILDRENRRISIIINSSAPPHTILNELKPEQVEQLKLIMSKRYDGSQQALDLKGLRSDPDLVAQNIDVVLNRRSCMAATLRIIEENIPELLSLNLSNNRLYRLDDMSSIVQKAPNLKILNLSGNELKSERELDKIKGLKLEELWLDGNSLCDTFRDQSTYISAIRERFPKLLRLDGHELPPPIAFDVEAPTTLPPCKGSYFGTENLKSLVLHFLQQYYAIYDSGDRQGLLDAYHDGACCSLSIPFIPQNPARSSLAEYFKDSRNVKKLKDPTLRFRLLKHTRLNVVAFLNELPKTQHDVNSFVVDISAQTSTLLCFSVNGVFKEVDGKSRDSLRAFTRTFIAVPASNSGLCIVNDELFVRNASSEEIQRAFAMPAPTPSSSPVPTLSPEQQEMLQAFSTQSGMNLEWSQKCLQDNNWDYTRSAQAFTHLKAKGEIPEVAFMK
UniProt P13674: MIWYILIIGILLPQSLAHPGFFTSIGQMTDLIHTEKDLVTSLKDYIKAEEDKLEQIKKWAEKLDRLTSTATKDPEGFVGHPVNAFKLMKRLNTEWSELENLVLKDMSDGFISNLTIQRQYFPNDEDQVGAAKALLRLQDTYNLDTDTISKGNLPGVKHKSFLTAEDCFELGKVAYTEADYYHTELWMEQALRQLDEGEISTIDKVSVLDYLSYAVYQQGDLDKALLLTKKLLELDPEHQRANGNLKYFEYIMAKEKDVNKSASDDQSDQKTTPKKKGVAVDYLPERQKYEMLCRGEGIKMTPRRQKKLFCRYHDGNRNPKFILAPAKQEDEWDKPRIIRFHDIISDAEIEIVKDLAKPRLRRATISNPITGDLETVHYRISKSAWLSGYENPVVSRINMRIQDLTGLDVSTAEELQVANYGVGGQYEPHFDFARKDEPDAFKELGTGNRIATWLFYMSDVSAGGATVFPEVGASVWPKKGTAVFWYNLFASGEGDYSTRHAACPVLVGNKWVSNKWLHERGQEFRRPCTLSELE
UniProt Q6PK18: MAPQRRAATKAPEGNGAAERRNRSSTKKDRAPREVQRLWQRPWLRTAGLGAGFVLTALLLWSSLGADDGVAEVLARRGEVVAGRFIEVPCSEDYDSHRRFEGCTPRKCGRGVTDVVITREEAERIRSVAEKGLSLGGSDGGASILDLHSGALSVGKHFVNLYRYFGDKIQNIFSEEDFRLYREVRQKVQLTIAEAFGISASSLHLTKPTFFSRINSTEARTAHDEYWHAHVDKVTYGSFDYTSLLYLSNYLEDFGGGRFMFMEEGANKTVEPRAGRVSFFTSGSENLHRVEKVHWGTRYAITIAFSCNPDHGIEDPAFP
UniProt Q9H6K4: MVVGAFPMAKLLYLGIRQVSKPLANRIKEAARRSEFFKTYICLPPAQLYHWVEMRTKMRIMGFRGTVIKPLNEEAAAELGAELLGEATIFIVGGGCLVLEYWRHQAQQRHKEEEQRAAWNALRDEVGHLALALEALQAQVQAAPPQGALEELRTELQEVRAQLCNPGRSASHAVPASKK
UniProt P53370: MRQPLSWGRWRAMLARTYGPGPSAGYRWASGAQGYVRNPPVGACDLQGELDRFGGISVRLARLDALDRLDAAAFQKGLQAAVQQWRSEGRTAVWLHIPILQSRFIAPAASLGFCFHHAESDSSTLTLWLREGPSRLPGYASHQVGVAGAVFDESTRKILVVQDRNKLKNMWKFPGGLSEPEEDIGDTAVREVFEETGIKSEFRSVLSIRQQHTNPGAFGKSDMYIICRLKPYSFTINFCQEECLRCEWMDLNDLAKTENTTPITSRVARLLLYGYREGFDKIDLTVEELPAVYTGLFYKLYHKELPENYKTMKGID
UniProt Q9H4B0: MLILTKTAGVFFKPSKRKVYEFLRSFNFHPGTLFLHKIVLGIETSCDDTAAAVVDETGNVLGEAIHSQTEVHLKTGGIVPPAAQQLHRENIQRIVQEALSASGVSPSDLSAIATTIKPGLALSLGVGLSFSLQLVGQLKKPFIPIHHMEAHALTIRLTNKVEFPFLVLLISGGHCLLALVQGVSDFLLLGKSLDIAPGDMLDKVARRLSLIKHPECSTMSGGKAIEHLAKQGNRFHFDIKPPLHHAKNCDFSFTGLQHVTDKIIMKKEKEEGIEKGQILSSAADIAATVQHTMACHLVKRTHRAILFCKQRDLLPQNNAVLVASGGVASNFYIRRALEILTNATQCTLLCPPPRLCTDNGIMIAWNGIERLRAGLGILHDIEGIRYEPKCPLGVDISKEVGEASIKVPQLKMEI
UniProt Q9H4L5: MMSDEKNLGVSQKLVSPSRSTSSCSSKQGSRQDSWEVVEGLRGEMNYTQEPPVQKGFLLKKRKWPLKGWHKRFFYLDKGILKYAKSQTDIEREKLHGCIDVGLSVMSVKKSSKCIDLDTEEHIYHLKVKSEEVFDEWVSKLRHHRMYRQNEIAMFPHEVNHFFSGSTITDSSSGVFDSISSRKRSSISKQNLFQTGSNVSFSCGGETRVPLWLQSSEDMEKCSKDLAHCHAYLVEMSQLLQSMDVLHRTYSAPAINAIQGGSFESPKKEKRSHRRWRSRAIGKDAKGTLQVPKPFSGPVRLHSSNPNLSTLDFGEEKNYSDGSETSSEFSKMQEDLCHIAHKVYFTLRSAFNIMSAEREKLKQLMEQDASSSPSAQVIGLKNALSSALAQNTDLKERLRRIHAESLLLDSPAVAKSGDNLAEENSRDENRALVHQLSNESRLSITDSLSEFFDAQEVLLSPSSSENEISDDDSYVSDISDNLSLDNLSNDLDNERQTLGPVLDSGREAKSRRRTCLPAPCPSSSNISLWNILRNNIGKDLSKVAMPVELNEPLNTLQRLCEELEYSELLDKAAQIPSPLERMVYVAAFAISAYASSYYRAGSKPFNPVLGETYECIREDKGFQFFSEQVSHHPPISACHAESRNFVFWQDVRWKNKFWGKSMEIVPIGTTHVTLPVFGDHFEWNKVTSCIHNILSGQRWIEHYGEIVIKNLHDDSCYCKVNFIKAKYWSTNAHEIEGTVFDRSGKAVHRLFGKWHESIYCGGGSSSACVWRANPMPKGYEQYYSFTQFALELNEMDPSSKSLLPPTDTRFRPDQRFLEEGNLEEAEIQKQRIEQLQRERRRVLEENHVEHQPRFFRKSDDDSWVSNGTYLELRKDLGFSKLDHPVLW
UniProt Q9Y6K5: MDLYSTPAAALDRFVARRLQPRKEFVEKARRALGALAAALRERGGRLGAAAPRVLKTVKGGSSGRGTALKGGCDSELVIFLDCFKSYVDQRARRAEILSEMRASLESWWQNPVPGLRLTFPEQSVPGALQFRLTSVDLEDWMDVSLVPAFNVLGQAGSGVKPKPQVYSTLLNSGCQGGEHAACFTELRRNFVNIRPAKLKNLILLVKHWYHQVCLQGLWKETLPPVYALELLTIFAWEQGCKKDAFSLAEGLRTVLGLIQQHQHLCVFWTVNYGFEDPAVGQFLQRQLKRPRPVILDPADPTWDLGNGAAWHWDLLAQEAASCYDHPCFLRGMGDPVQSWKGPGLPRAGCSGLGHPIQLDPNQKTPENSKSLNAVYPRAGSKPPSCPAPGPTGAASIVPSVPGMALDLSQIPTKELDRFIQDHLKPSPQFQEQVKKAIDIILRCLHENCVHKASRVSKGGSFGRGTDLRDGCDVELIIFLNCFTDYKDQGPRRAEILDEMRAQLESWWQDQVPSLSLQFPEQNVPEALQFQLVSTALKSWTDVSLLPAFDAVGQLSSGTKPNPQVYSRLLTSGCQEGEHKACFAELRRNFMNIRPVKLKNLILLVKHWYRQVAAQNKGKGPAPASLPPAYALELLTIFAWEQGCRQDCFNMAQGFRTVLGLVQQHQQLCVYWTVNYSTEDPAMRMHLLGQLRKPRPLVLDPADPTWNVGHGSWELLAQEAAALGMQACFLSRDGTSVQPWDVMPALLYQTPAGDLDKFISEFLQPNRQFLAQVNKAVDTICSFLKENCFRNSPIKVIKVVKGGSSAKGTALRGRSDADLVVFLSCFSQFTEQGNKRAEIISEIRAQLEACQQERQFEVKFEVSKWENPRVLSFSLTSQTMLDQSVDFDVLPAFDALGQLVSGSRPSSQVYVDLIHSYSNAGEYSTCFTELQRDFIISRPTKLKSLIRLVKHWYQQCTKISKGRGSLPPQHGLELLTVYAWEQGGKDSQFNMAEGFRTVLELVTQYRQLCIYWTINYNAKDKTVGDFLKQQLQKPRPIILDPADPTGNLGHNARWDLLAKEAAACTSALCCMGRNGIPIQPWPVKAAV
UniProt Q8WV74: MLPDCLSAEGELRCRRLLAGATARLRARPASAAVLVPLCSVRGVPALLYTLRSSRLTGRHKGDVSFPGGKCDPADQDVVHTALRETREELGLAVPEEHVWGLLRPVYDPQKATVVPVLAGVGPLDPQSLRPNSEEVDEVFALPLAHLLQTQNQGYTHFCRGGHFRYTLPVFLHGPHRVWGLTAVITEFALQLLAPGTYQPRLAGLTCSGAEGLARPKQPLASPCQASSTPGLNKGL
UniProt Q86UD1: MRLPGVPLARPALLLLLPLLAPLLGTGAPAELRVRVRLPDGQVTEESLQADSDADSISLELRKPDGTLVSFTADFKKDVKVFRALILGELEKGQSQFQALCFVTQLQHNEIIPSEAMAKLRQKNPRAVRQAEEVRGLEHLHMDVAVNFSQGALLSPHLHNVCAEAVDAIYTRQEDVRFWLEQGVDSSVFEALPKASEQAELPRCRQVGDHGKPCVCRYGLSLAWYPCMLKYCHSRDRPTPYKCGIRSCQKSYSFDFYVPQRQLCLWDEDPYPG
UniProt Q9BZD4: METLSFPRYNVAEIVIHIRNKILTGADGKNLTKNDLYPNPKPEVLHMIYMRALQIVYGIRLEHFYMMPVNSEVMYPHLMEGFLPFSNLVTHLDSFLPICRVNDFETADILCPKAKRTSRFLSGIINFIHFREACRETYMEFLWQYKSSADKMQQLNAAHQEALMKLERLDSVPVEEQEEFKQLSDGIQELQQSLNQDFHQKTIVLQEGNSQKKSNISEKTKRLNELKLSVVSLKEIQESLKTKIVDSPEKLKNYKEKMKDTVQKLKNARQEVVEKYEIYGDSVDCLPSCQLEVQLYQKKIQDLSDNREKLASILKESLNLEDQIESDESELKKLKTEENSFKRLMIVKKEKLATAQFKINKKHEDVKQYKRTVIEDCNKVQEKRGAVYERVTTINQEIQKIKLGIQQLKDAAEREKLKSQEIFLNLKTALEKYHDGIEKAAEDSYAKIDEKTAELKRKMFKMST

Tests used:
Test in all cases: log2 fold change, soluble protein after heating vs DMSO (PISA); higher = thermal stabilisation; K562 cells, 10 uM, 30 min; active = over 0.2 and 3.5 SD of the protein, either way, in both replicates (recomputed)
erlotinib = compound: C#Cc1cccc(Nc2ncnc3cc(OCCOC)c(OCCOC)cc23)c1 [erlotinib]
Method in brief: (§1)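 K562 cells (2×10^6 cells/mL) were treated with 10 μM compound for 30 min, and aliquots were heated for 3 min over 48°C-58°C. Pooled aliquots were extracted in PBS with 0.5% NP-40 at 4°C, and the supernatant after 21,000xg for 90 min was measured by TMTpro 16plex LC-MS/MS with channel sums equalised. Reported thermal stability, relative to control samples and from duplicates, is a log2 fold change.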

[1] = compound: C1=CC(=CC=C1C2=NC3=C(N2)C=C(C=C3)C(=O)N)OC4=CC=C(C=C4)Cl
Method in brief: as §1

[2] = compound: C1=CC(=C(C=C1Cl)C2=NC3=NC=CN=C3C(=N2)NC4=CC=NC=C4)F
Method in brief: as §1

[3] = compound: C1=CC2=NC=CN=C2C=C1/C=C/3\C(=O)NC(=O)S3
Method in brief: as §1

[4] = compound: C1=CC=C(C=C1)C2=NC(=C(N2)C3=CC=NC=C3)C4=CC(=C(C=C4)Cl)O
Method in brief: as §1

[5] = compound: C1CCN(C1)C(=O)NC2=CC=CC(=C2)NC3=NC=C(C(=N3)NCCC4=CN=CN4)Br
Method in brief: as §1

[6] = compound: C1CN(CCC1(CC2=CC=C(C=C2)Cl)N)C3=NC=NC4=C3C=CN4
Method in brief: as §1

[7] = compound: C/C(=N\NC(=O)C1=CC(=CC=C1)S(=O)(=O)N2CCOCC2)/C3=C(C=CC(=C3)Cl)O
Method in brief: as §1

[8] = compound: C1=CC2=C(C=CC(=C2)/C=C\3/C(=O)NC(=NCC4=CC=CS4)S3)N=C1
Method in brief: as §1

[9] = compound: C1=CC=C2C(=C1)C3=NNC4=CC=CC(=C43)C2=O
Method in brief: as §1

Measured: log2 fold change

ORMDL3 (UniProt Q8N138)
inactive: erlotinib -0.022 | [1] 0.133

ODF2 (UniProt Q5BJF6)
inactive: [2] -0.044

ORAI1 (UniProt Q96D31)
inactive: erlotinib 0.033 | [2] 0.203 | [1] 0.026 | [3] -0.004 | [4] 0.002 | [5] -0.109 | [6] -0.135

NUDT7 (UniProt P0C024)
inactive: erlotinib -0.246 | [2] -0.282 | [1] 0.148 | [3] -0.066 | [4] -0.118 | [5] 0.158 | [6] -0.024

PABPC1 (UniProt H0YAR2)
inactive: [4] -0.137

NXF1 (UniProt Q9UBU9)
inactive: [7] 0.169 | [8] 0.079 | [4] -0.043 | [9] -0.035 | [5] 0.086 | [6] 0.048

P4HA1 isoform 2 (UniProt P13674)
inactive: [7] -0.115 | [2] -0.069 | [8] 0.061 | [3] -0.035 | [4] -0.104 | [9] -0.112 | [5] 0.024 | [6] -0.052

OGFOD3 (UniProt Q6PK18)
inactive: [3] -0.226 | [4] -0.048

OPA3 isoform 2 (UniProt Q9H6K4)
inactive: erlotinib 0.015 | [7] -0.04 | [1] 0.005 | [8] -0.013 | [4] 0.121 | [9] -0.113

NUDT6 (UniProt P53370)
inactive: erlotinib -0.022 | [2] 0.155 | [1] 0.103 | [4] -0.12 | [5] 0.121 | [6] 0.35

Reprinted at random: 2 entries already listed
OGFOD3 (UniProt Q6PK18)
inactive: [3] -0.226 | [4] -0.048

P4HA1 isoform 2 (UniProt P13674)
inactive: [7] -0.115 | [2] -0.069 | [8] 0.061 | [3] -0.035 | [4] -0.104 | [9] -0.112 | [5] 0.024 | [6] -0.052

Remaining list, next part

OSGEPL1 (UniProt Q9H4B0)
inactive: erlotinib 0.038 | [7] -0.217 | [1] 0.067 | [8] 0.136 | [9] 0.37

OBSCN (UniProt A6NGQ3)
inactive: [7] -0.037 | [8] 0.01 | [3] 0.452 | [4] -0.137 | [9] 0.098 | [5] 0.131 | [6] 0.159

OGFOD3 isoform 2 (UniProt Q6PK18)
inactive: erlotinib -0.014 | [7] -0.097 | [2] 0.036 | [1] 0.081 | [8] 0.074 | [3] -0.007 | [9] -0.061 | [5] 0.011 | [6] 0.011

NSMCE1 (UniProt Q8WV22)
inactive: erlotinib -0.116 | [7] -0.028 | [2] -0.023 | [1] 0.032 | [8] 0.139 | [4] 0.019 | [9] 0.028 | [5] -0.009 | [6] 0.145

OSBPL3 (UniProt Q9H4L5)
active: erlotinib 1.67
inactive: [7] 0.15 | [2] -0.147 | [1] 0.165 | [8] 0.094 | [4] 0.255 | [9] 0.16 | [5] -0.021 | [6] -0.078

ORC3 (UniProt Q9UBD5)
inactive: [7] 0.097 | [8] -0.104 | [9] 0.105

ODC1 (UniProt P11926)
inactive: erlotinib 0.761 | [7] -0.142 | [1] -0.06 | [8] -0.073 | [9] -0.15

NVL (UniProt O15381)
inactive: [3] -0.124 | [4] -0.028

OAS3 (UniProt Q9Y6K5)
inactive: [3] 0.139 | [4] 0.226

NUDT8 (UniProt Q8WV74)
inactive: erlotinib 0.086 | [1] -0.162 | [3] -0.022 | [4] 0.074 | [5] -0.16 | [6] -0.053

OAF (UniProt Q86UD1)
inactive: erlotinib -0.115 | [1] 0.05 | [4] -0.174

NUF2 (UniProt Q9BZD4)
inactive: [7] 0.011 | [2] -0.376 | [8] 0.004 | [3] -0.129 | [9] -0.013
